What all share (experiment): co-IP
Experiment [1] deals with T1, HA-tagged substrate trapping mutant (D181A) of mouse PTP1B (mouse) (UniProt P35821).
T1 sequence: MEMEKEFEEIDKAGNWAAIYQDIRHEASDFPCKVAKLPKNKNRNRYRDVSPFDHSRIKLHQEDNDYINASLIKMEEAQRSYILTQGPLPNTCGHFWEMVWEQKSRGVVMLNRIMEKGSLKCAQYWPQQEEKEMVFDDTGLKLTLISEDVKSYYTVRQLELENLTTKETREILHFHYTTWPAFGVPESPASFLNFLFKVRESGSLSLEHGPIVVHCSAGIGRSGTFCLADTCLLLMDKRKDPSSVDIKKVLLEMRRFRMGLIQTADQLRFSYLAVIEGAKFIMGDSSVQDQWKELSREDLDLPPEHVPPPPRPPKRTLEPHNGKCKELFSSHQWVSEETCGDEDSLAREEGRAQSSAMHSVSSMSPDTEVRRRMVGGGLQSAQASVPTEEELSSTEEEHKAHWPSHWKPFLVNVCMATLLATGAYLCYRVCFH

The chains behind the UniProt entries cited, without tags or fusion partners. Where a name states a change or a piece, a line headed by the entry shows the natural chain unless it says otherwise.
UniProt Q63HN8, whole entry: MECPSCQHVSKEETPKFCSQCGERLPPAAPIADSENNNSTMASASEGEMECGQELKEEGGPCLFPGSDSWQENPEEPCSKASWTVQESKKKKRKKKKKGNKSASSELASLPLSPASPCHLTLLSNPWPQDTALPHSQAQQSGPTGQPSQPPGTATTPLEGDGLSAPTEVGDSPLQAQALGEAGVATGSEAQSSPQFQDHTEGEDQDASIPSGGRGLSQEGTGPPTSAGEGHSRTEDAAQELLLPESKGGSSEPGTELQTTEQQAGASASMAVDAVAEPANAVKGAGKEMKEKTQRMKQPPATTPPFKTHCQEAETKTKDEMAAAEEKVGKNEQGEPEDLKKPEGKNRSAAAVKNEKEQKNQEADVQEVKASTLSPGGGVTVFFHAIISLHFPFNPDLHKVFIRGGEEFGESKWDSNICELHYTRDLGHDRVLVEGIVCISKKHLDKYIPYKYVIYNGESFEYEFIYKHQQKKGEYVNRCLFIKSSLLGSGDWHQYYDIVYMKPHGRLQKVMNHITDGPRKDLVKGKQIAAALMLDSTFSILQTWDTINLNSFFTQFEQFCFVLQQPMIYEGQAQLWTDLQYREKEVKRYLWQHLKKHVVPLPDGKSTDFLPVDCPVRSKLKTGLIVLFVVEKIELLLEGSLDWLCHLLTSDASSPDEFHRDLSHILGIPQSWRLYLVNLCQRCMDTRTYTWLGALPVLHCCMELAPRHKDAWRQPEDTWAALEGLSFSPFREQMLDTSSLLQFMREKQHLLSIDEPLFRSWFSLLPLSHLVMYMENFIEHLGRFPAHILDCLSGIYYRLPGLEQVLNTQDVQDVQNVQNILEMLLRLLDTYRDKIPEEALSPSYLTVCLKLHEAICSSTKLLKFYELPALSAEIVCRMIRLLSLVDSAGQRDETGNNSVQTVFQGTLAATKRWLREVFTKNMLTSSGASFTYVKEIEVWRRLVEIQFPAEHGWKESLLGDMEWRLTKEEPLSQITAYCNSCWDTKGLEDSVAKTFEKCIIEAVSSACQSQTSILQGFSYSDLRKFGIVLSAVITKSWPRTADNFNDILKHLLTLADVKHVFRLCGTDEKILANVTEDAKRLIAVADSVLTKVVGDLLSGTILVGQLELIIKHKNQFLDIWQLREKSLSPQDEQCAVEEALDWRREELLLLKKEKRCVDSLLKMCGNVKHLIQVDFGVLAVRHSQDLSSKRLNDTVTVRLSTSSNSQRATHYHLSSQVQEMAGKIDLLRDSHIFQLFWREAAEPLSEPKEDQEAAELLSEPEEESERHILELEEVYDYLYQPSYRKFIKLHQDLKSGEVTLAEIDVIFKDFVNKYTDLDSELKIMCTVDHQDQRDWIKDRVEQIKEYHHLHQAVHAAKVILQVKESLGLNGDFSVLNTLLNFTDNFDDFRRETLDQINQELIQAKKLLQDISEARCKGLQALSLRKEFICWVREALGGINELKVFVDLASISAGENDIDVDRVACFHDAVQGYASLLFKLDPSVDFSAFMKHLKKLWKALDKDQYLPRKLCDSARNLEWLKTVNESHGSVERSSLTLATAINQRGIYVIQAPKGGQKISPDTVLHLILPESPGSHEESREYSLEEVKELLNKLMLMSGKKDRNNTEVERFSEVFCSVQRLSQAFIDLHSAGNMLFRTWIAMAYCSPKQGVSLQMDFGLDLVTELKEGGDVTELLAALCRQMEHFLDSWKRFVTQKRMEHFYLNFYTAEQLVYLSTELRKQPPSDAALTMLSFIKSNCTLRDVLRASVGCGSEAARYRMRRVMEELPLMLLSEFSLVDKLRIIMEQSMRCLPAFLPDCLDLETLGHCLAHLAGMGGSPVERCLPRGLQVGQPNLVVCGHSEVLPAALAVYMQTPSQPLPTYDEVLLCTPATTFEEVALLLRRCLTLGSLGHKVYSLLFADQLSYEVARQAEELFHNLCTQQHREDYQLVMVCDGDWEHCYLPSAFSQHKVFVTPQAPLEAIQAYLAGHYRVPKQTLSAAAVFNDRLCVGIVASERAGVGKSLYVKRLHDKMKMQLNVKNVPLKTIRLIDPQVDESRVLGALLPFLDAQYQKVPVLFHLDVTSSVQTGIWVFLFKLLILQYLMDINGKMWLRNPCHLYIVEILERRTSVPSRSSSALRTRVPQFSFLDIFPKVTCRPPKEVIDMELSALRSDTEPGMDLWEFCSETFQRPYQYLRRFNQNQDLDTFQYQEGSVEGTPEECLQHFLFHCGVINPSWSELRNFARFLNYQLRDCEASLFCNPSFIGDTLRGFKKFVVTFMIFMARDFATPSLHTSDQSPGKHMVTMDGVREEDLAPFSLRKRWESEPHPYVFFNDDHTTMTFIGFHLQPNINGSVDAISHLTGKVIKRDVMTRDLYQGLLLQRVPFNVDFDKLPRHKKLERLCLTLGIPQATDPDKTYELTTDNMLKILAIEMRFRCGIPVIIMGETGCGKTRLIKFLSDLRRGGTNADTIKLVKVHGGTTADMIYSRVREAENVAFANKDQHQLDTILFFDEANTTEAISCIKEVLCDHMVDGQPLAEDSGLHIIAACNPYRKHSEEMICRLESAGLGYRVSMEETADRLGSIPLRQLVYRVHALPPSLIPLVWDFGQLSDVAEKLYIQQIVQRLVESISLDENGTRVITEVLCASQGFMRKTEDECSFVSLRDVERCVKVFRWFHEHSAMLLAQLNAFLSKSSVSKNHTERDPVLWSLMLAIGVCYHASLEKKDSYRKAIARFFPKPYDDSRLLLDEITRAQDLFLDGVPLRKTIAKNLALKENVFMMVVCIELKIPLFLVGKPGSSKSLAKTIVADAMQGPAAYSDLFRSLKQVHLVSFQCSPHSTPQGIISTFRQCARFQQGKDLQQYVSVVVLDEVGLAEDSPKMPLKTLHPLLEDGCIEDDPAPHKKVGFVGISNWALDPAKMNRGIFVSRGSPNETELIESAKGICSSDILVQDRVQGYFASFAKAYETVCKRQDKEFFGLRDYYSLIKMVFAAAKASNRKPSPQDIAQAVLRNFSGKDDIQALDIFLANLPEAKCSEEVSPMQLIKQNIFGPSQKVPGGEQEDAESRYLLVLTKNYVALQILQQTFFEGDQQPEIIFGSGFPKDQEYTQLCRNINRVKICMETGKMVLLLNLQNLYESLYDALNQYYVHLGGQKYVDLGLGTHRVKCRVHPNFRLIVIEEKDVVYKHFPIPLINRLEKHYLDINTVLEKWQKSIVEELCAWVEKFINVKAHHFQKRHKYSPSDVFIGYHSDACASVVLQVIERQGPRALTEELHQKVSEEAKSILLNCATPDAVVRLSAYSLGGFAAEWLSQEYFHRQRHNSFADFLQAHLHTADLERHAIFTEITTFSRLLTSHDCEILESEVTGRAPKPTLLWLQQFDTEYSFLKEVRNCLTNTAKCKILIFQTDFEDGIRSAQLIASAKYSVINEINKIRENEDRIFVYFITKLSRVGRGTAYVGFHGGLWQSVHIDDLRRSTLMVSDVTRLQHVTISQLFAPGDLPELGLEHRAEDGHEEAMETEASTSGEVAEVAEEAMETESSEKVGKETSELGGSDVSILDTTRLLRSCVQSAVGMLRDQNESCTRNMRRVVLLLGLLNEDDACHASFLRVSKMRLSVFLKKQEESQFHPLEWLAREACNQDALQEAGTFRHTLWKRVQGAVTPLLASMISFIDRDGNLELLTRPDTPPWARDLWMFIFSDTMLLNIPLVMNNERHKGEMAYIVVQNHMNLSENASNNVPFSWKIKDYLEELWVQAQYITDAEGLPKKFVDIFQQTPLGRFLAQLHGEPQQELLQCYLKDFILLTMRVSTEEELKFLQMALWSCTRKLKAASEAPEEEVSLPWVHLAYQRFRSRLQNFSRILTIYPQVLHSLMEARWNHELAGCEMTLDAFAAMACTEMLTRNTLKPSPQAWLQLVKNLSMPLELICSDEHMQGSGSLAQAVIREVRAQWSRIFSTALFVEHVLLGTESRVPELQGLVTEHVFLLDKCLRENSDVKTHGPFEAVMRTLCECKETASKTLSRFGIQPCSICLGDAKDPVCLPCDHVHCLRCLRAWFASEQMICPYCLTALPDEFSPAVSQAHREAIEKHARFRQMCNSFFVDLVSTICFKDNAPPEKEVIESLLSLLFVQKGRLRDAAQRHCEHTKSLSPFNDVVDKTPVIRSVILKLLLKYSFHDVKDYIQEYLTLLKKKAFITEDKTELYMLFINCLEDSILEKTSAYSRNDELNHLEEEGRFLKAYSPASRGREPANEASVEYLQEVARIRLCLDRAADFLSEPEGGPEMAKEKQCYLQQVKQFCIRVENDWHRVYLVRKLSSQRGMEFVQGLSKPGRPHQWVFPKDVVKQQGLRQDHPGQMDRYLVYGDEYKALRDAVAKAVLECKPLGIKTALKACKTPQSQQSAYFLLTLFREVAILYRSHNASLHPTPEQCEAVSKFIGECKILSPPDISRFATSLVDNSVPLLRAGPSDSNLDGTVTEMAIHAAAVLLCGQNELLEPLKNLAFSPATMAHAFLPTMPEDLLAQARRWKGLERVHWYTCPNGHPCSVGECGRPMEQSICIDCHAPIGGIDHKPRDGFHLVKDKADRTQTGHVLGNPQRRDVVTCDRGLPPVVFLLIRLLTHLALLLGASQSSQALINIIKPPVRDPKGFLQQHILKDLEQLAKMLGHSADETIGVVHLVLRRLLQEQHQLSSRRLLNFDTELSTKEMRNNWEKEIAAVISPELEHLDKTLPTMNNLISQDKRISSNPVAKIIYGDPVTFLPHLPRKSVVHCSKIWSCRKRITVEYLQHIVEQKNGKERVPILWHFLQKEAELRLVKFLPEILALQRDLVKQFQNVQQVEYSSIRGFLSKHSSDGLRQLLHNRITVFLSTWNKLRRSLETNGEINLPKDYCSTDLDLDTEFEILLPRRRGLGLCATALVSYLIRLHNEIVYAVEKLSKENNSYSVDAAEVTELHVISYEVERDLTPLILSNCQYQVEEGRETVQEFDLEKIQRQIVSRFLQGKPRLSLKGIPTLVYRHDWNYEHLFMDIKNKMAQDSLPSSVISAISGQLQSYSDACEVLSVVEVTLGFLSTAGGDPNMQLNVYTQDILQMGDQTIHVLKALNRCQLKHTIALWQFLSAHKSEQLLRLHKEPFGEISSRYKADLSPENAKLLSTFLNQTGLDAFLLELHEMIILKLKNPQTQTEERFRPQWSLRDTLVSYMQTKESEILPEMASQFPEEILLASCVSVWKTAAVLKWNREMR

The target in a further experiment is 3x-FLAG-RNF213^Y1275F (UniProt Q63HN8).
The next experiment addresses 3x-FLAG-RNF213 (UniProt Q63HN8).

No constants are given. Whether binding was seen depends on the method and setting. In cells and extracts the contact can be indirect. Some results given as binding are weak or reduced against the parent protein; the word gives no strength. For some of these results: Tags and fused reporters may be left off the sequences shown.

In the case of “3x-FLAG-RNF213 (from UniProt Q63HN8 1-5207)”, the binding entry in experiment [1] is recorded as “binds”.
On the same count and under the same terms, then “3x-FLAG-RNF213^Y1275F (from UniProt Q63HN8 1-5207)”, with “binds weakly”.
Turning to GFP-RNF213 (from UniProt Q63HN8 1-5207), the binding entry in the experiment with 3x-FLAG-RNF213^Y1275F is recorded as “binds”.

B1: SPATA2 (protein, UniProt Q9UM82 1-520)
chain: MGKPSSMDTKFKDDLFRKYVQFHESKVDTTTSRQRPGSDECLRVAASTLLSLHKVDPFYRFRLIQFYEVVESSLRSLSSSSLRALHGAFSMLETVGINLFLYPWKKEFRSIKTYTGPFVYYVKSTLLEEDIRAILSCMGYTPELGTAYKLRELVETLQVKMVSFELFLAKVECEQMLEIHSQVKDKGYSELDIVSERKSSAEDVRGCSDALRRRAEGREHLTASMSRVALQKSASERAAKDYYKPRVTKPSRSVDAYDSYWESRKPPLKASLSLRKEPVATDVGDDLKDEIIRPSPSLLTMASSPHGSPDVLPPASPSNGPALLRGTYFSTQDDVDLYTDSEPRATYRRQDALRPDVWLLRNDAHSLYHKRSPPAKESALSKCQSCGLSCSSSLCQRCDSLLTCPPASKPSAFPSKASTHDSLAHGASLREKYPGQTQGLDRLPHLHSKSKPSTTPTSRCGFCNRPGATNTCTQCSKVSCDACLSAYHYDPCYKKSELHKFMPNNQLNYKSTQLSHLVYR
In the case of B1, the binding entry with 3x-FLAG-RNF213 is “binds”.

Source of the values: doi:10.1101/2023.08.05.552118.
